These are yes or no findings as the source states them, for the method shown. Binding can be weak; no strength is given. For some assays here: Binding seen in cells or lysates may run through a third protein.
What was measured:
[1] = biological target: TPLATE-GFP (full-length) (Arabidopsis) (UniProt F4J8D3); assay: co-IP
TML-GS (Arabidopsis) = TML-GS (Arabidopsis) (UniProt Q9FKM4); assay: cross-linking

Protein sequences, listed by entry. Tags and fused reporters are not part of them. Lines headed by an entry give the natural chain unless they say otherwise; changes in a name come on top.
UniProt F4J8D3: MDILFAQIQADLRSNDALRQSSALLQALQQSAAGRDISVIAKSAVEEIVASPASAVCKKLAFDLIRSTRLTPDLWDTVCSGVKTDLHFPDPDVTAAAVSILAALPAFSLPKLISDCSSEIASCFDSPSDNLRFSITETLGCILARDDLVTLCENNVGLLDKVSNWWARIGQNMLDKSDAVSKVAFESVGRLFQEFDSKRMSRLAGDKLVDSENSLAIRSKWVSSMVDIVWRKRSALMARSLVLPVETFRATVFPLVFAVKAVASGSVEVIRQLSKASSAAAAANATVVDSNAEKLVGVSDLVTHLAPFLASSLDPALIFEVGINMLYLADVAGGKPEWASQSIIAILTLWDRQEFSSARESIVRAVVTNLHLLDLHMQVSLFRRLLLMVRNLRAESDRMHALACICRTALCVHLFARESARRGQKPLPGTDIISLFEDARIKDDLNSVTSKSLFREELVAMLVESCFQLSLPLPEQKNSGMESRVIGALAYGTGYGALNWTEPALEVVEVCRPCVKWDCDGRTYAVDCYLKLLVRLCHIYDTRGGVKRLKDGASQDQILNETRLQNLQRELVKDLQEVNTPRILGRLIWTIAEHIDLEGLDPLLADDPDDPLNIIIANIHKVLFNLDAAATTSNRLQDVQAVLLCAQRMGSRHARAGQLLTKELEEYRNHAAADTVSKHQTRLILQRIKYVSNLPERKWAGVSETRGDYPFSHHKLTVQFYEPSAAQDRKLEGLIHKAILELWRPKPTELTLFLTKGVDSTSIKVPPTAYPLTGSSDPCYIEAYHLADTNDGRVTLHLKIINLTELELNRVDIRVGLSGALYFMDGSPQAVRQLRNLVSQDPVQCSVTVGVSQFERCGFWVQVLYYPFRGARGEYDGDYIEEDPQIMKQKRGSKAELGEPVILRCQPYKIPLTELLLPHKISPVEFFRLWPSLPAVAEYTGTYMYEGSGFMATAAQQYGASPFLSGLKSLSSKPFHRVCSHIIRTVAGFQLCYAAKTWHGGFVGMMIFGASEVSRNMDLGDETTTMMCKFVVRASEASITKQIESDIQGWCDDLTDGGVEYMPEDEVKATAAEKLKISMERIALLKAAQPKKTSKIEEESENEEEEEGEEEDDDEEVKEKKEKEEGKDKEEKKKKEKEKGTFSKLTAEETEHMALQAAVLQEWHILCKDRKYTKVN
UniProt F4KIH8: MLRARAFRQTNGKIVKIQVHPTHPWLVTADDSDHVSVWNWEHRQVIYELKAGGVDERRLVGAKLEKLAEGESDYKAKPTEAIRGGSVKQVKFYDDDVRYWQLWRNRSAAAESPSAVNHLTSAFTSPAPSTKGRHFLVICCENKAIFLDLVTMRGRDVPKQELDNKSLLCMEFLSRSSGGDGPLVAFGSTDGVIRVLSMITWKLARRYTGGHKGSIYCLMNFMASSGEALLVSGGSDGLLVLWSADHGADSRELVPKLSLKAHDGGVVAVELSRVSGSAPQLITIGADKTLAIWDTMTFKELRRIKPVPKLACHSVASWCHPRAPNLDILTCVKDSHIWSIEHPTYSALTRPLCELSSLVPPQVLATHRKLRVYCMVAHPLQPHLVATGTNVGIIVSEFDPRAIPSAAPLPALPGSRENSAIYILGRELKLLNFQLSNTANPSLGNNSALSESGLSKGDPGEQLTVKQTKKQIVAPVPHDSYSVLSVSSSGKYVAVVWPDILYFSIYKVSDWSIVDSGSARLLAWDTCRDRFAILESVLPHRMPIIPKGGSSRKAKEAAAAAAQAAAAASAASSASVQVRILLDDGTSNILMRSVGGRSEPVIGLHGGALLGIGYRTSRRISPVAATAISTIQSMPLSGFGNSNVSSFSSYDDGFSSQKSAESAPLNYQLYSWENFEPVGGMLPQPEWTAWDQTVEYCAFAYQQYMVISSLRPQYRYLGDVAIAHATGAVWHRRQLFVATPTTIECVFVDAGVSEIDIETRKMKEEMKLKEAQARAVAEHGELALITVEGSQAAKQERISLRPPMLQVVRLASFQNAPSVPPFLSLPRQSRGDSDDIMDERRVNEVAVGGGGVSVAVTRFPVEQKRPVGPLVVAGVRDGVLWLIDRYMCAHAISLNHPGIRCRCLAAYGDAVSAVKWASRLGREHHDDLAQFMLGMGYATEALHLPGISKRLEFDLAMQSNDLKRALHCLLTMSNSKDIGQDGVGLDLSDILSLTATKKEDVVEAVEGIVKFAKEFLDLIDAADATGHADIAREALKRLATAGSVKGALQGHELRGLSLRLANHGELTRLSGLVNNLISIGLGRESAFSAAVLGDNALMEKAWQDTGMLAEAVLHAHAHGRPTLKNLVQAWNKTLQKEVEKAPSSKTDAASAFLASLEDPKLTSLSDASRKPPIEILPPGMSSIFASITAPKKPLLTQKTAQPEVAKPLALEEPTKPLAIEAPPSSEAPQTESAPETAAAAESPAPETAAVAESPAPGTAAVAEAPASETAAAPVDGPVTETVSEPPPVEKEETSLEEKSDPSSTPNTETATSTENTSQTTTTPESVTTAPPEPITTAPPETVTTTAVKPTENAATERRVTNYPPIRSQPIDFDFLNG

| Substance | binding [1] | binding (TML-GS (Arabidopsis)) |
| --- | --- | --- |
| TWD40-2 (from UniProt F4KIH8) | binds | – |
| AtEH1/Pan1 (from UniProt F4HUN9) | – | binds |
